Measured values taken from patent US20260224661A1.
No constants are given. Whether binding was seen depends on the method and setting. Some results given as binding are weak or reduced against the parent protein; the word gives no strength.

The chains behind the UniProt entries cited, without tags or fusion partners. Where a name states a change or a piece, a line headed by the entry shows the natural chain unless it says otherwise.
UniProt Q9UKZ4: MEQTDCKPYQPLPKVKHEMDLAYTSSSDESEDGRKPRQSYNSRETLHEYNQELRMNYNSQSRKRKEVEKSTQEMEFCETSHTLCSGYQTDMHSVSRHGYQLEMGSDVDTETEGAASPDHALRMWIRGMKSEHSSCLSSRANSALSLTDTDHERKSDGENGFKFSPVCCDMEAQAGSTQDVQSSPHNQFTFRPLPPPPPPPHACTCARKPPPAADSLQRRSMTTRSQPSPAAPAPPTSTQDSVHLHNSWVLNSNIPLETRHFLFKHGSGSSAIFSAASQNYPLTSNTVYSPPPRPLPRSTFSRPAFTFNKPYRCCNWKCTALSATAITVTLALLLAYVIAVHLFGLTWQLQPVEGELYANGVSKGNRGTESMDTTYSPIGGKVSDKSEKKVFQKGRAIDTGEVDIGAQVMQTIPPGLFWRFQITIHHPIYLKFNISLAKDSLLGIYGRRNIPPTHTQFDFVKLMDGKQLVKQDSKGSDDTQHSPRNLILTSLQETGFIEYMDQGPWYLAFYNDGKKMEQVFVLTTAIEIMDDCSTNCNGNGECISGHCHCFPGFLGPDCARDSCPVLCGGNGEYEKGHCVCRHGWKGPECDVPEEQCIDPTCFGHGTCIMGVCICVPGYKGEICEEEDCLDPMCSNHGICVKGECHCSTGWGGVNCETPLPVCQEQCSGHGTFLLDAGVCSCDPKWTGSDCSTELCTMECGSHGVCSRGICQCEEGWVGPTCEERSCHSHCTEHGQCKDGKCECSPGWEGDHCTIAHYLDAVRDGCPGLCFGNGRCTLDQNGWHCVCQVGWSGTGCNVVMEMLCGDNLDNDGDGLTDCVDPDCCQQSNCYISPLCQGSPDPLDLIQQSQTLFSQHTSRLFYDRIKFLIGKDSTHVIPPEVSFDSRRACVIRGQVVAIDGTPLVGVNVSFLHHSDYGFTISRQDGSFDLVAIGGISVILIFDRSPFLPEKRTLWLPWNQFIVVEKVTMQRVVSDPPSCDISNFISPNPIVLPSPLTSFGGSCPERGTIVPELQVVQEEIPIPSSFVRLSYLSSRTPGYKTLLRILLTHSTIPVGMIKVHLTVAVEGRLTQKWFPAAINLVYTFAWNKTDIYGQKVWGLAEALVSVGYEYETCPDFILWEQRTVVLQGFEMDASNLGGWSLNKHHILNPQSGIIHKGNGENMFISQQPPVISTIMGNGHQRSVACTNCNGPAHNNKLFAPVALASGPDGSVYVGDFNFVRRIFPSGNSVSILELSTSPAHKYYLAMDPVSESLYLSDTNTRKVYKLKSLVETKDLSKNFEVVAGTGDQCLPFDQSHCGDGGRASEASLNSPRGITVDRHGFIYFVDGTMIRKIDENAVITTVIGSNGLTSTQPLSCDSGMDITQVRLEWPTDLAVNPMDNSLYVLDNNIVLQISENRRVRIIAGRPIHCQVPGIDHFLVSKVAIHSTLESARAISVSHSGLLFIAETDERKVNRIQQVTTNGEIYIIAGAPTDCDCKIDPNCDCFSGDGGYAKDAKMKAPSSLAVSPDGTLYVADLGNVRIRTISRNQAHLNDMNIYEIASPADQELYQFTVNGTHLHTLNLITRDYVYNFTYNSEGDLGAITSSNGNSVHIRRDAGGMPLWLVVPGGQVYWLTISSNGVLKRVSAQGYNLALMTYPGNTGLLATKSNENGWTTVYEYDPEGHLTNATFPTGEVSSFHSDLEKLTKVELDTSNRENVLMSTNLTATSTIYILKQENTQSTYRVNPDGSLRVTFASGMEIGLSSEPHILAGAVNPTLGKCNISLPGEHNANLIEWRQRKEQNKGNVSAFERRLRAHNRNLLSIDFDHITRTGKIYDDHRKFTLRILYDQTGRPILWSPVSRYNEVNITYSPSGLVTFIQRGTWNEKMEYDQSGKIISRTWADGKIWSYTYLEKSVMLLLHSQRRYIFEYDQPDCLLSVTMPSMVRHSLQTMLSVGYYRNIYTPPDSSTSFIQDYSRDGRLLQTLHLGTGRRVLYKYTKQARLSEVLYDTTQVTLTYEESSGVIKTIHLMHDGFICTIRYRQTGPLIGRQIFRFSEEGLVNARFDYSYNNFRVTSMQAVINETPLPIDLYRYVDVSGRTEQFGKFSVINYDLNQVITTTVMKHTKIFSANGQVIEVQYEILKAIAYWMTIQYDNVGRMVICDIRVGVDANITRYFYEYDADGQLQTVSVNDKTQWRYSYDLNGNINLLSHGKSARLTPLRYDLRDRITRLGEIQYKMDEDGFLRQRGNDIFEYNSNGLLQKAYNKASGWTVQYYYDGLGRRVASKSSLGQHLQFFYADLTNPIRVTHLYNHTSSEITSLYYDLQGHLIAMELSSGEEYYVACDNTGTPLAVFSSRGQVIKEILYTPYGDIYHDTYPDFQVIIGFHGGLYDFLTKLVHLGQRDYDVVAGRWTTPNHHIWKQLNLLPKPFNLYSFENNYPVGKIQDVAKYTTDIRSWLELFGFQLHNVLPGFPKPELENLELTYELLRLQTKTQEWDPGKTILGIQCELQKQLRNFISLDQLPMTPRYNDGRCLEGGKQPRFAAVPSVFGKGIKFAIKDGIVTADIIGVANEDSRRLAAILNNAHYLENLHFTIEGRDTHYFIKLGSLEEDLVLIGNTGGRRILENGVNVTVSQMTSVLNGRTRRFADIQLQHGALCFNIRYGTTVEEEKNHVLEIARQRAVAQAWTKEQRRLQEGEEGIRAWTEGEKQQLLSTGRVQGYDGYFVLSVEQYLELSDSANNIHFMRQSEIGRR
UniProt Q9NT68: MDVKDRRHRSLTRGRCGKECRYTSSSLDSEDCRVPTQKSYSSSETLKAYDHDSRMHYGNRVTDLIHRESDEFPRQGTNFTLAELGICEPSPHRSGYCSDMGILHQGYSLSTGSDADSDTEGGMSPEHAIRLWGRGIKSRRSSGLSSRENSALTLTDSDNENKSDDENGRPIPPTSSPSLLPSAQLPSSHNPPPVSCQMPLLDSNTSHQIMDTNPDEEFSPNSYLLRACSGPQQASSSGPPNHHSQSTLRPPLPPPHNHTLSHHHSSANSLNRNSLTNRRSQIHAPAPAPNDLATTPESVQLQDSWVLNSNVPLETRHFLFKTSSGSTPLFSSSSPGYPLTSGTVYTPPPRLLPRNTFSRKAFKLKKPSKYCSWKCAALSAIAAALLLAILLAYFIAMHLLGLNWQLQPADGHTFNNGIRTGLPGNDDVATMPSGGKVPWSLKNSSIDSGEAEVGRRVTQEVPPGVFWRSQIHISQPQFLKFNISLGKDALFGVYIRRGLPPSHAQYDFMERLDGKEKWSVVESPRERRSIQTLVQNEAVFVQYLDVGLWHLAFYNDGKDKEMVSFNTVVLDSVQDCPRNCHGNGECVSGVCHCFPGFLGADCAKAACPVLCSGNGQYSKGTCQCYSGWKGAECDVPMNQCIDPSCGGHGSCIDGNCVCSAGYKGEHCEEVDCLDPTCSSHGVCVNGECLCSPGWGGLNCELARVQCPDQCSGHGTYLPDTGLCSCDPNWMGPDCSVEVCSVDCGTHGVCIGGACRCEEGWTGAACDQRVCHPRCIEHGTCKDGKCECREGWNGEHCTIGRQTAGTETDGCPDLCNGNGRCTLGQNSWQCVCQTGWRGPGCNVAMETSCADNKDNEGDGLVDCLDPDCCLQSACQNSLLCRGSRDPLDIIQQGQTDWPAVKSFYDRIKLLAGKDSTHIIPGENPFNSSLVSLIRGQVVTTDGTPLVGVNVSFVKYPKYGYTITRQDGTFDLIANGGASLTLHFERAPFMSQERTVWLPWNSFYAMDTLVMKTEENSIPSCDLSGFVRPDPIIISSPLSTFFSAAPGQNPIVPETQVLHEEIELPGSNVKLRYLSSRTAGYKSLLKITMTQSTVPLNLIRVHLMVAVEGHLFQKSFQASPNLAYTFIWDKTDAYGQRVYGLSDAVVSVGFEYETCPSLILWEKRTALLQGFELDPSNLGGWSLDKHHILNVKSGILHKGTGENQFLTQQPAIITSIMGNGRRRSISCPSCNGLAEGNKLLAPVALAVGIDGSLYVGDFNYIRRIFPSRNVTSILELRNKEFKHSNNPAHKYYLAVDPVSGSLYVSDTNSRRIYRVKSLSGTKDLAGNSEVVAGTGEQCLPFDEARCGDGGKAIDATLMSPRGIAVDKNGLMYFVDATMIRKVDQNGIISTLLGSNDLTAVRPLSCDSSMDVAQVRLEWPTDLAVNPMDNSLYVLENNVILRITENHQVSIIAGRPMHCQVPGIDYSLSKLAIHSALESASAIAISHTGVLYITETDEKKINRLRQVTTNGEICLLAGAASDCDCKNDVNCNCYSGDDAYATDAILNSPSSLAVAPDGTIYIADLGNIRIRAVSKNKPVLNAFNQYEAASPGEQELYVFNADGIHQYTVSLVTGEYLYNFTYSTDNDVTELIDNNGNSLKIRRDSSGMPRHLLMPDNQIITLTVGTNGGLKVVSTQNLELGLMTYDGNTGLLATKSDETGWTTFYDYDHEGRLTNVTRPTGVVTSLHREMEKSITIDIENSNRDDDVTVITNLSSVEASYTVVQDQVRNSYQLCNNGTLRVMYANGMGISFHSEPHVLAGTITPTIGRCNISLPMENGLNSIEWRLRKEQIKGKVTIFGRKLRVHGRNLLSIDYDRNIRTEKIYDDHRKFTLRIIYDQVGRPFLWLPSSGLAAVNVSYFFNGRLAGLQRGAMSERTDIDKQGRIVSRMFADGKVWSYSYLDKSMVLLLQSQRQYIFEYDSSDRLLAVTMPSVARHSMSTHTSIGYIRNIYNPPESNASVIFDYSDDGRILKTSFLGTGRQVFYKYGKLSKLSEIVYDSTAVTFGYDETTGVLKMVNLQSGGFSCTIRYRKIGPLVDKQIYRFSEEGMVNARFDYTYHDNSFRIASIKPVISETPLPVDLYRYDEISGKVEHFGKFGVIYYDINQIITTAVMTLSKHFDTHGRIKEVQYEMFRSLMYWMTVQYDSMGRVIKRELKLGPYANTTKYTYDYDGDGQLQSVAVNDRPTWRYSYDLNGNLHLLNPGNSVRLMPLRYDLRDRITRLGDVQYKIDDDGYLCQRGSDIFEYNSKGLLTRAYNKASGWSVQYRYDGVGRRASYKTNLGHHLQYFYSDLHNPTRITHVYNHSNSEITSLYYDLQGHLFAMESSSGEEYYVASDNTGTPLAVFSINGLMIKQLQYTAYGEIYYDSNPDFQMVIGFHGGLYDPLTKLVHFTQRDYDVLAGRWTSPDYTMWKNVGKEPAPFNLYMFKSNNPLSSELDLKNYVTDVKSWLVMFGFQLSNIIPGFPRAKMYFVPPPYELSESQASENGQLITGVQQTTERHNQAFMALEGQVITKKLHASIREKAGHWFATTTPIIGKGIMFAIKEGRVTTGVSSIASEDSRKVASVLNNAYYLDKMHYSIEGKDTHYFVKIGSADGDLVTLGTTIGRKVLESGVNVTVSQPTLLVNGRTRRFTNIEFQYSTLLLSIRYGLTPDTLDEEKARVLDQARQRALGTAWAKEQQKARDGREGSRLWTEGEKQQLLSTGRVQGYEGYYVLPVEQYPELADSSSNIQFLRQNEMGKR

Tests used:
[1] = molecular target: Tenm1 expressed in HEK293 cells (human) (UniProt Q9UKZ4); assay: surface-binding assay on HEK293 cells expressing Tenm1 (FIG. 4D)
[2] = molecular target: Tenm2 expressed in HEK293 cells (human) (UniProt Q9NT68); assay: surface-binding assay on HEK293 cells expressing Tenm2 (FIG. 4)
[3] = molecular target: Tenm2 expressed in HEK293 cells (human) (UniProt Q9NT68); assay: surface-binding assay on HEK293 cells expressing Tenm2 (FIG. 4D)
[4] = molecular target: Tenm1 expressed in HEK293 cells (human) (UniProt Q9UKZ4); assay: surface-binding assay on HEK293 cells expressing Tenm1 (FIG. 4)

Measured: binding

B1: follistatin-like domain of SPARCL1 (ligand)
chain: PNAEPSDEGNSREHSAGSCTNFQCKRGHICKTDPQGKPHCVCQDPETCPPAKILDQACGTDNQTYASSCHLFATKCRLEGTKKGHQLQLDYFGACKSIP
binds: all assays above
